{
  "sequences": {"note": "Chains of the proteins cited; added tags and fusions are not shown.", "UniProt Q9C0J9": "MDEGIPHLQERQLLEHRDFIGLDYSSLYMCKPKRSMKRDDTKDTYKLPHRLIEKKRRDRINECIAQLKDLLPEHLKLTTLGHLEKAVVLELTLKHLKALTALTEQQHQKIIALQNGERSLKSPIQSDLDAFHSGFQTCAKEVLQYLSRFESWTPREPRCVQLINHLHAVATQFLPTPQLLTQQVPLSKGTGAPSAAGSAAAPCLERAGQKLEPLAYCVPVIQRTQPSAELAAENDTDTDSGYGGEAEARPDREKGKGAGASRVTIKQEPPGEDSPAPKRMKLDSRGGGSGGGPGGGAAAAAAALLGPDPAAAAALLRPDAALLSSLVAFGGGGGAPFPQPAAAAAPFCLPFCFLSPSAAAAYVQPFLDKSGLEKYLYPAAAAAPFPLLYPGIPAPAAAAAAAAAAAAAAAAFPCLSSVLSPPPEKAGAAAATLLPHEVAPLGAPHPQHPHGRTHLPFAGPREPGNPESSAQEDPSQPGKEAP"},
  "source": "paper PMC11134742",
  "molecules": {"B1": {"name": "Pyrroline-5-carboxylate reductase 1 (PYCR1), endogenous (protein, UniProt P32322 1-319)", "chain": "MSVGFIGAGQLAFALAKGFTAAGVLAAHKIMASSPDMDLATVSALRKMGVKLTPHNKETVQHSDVLFLAVKPHIIPFILDEIGADIEDRHIVVSCAAGVTISSIEKKLSAFRPAPRVIRCMTNTPVVVREGATVYATGTHAQVEDGRLMEQLLSSVGFCTEVEEDLIDAVTGLSGSGPAYAFTALDALADGGVKMGLPRRLAVRLGAQALLGAAKMLLHSEQHPGQLKDNVSSPGGATIHALHVLESGGFRSLLINAVEASCIRTRELQSMADQEQVSPAAIKKTILDKVKLDSPAGTALSPSGHTKLLPRSLAPAGKD"}, "B2": {"name": "HA-PYCR1 (protein, UniProt P32322 1-319)", "chain": "B1 chain"}},
  "key": {"[1]": {"biological_target": "T1, Pyrroline-5-carboxylate reductase 1 (PYCR1), endogenous (human (endogenous in T24)) (UniProt P32322)", "T1 sequence": "B1 chain", "assay": "co-IP; endogenous proteins in T24 cell lysate; anti-BHLHE41 or anti-PYCR1 antibody on Protein G-agarose beads, overnight at 4 °C, IP-lysis buffer (Pierce Co-Immunoprecipitation Kit); western blot"}, "[2]": {"biological_target": "Basic helix-loop-helix family member e41 (BHLHE41), endogenous (human (endogenous in T24)) (UniProt Q9C0J9)", "assay": "co-IP; endogenous proteins in T24 cell lysate; anti-BHLHE41 or anti-PYCR1 antibody on Protein G-agarose beads, overnight at 4 °C, IP-lysis buffer (Pierce Co-Immunoprecipitation Kit); western blot"}, "Flag-BHLHE41 (human)": {"biological_target": "Flag-BHLHE41 (human) (UniProt Q9C0J9)", "assay": "co-IP; 293T cells co-transfected with Flag-BHLHE41 and HA-PYCR1; immunoprecipitation with anti-Flag on Protein G-agarose beads, overnight at 4 °C, IP-lysis buffer; western blot"}},
  "note": "Results are given in words; binding and its absence hold for the method and conditions named. In cells and extracts the contact can be indirect. Some results given as binding are weak or reduced against the parent protein; the word gives no strength. For part of these data: Sequences can lack the tags named with a protein.",
  "data": [
    {"molecule": "Basic helix-loop-helix family member e41 (BHLHE41), endogenous (from UniProt Q9C0J9 1-482)", "values": [
      {"measurement": "binding", "setting": "[1]", "value": "binds"}
    ]},
    {"molecule": "B1", "values": [
      {"measurement": "binding", "setting": "[2]", "value": "binds"}
    ]},
    {"molecule": "B2", "values": [
      {"measurement": "binding", "setting": "Flag-BHLHE41 (human)", "value": "binds"}
    ]}
  ]
}
